# Data from article PMC7819943, “Rice protein-binding microarrays: a tool to detect cis-acting elements near promoter regions in rice”.
# Chains of the proteins cited; added tags and fusions are not shown.
# UniProt Q0JBA9, entry or part of it: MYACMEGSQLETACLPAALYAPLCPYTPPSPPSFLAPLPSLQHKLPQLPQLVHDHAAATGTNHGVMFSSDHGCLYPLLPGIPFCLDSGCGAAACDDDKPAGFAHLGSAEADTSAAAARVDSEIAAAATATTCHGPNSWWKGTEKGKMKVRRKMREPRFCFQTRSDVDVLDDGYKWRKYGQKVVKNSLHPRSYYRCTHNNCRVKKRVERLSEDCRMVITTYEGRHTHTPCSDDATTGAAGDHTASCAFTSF
# Some of the results follow.
# Target: OsWRKY34 (Oryza sativa, UniProt Q0JBA9 1-250)
# Assay: protein-binding microarray (RPBM); PBS, 2% BSA, 51.3 ng/ul salmon testes DNA, 50 uM zinc acetate, 200 nM TF, 25 C, 1 h; high values mean tight binding
# Details: protein: recombinant; tags: N-terminal polyhistidine and DsRed monomer fusion (pET32a); label: CyDye5-dUTP incorporated in the synthesized complementary strand; 3' TTTTT single-stranded linker to array surface; dsDNA, one strand shown
# Procedure, shortened: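 Transcription factors were made in E. coli BL21-CodonPlus as N-terminal fusions to a polyhistidine tag and DsRed, then purified on Ni–NTA. After primer extension with Cy5-dUTP and blocking with 2% BSA, a custom Agilent array was exposed for 1 h at 25 °C to 200 nM protein in PBS, 2% BSA, salmon testes DNA and 50 µM zinc acetate. Washed arrays were scanned on an Axon 4000B, and the binding signal is per-feature fluorescence intensity in arbitrary units.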
row,Sequence,binding signal
1,ATCATTCTGCAGGTGCTACCCTAACTCAAAATTGCATCTTCGGAGTCACCTAGTGCAG,9190 fluorescence intensity (a.u.)
2,TATTTTGTTGGTTCACTATGACATATCTCACTATCTCTTTCGGAGTCACCTAGTGCAG,8250 fluorescence intensity (a.u.)
3,ACATCACCTCGTTTTTTTTCATGTCATCTAAATATTTATACGGAGTCACCTAGTGCAG,10100 fluorescence intensity (a.u.)
4,GCGTGTGTTGTGAGATGTATTATGTTGTGCTTTGTATTTTCGGAGTCACCTAGTGCAG,14900 fluorescence intensity (a.u.)
5,CTGCTTCTACGTGACCGCACACCAATCTCCTTCGCCCTCTCGGAGTCACCTAGTGCAG,8940 fluorescence intensity (a.u.)
6,AAGATATGCCTACATGGTTGTTTATGCAGCAACCTTTGAACGGAGTCACCTAGTGCAG,8180 fluorescence intensity (a.u.)
7,TGTAATTTATCCCGTTGTTACGGTATCCCGTTCTCTATTTCGGAGTCACCTAGTGCAG,9220 fluorescence intensity (a.u.)
8,GCTGACCACGCCTCGCTCTCTCGCGCCGCTCCTCCTCGCTCGGAGTCACCTAGTGCAG,8320 fluorescence intensity (a.u.)
9,TTGCCGATTTACAACAATTATTGTCCAGTTTTCACTGTGTCGGAGTCACCTAGTGCAG,8080 fluorescence intensity (a.u.)
10,CAGAGCAGGGGAGGGGAGGGGAGGGGATCCTGGTGAGCCTCGGAGTCACCTAGTGCAG,17600 fluorescence intensity (a.u.)
11,CGTCTCGAGCCACCTCGCCGCGGAAAACCTCCGTACTCCGCGGAGTCACCTAGTGCAG,8250 fluorescence intensity (a.u.)
12,ACATATCCATGGTCCAGGGAGCTCACCCGTCCAGCGTTTCCGGAGTCACCTAGTGCAG,8080 fluorescence intensity (a.u.)
13,AATTTTTCTATGTTTCTCAATGTATCATGTACTAGTAATTCGGAGTCACCTAGTGCAG,9060 fluorescence intensity (a.u.)
14,CTTGGCTTCCTCTCTTCTCCGTGTTCTTCTTGTCCGCTTTCGGAGTCACCTAGTGCAG,10900 fluorescence intensity (a.u.)
15,TCCTTGCATTTTCCTCCTCAGCTCTTATGCTAGTTATGTGCGGAGTCACCTAGTGCAG,8100 fluorescence intensity (a.u.)
16,GACGCATTCACTCCGCCTCCGCCTCCGCCTCCGCCTCCGCCGGAGTCACCTAGTGCAG,8900 fluorescence intensity (a.u.)
17,AATCATGAGCTAATGGCTCACCTCGTTTTGCGTATCTTTCCGGAGTCACCTAGTGCAG,10300 fluorescence intensity (a.u.)
18,TAGCTCGCTCGGCTCTTCACCAGCTCGATTCGATTCATCGCGGAGTCACCTAGTGCAG,9780 fluorescence intensity (a.u.)
19,CAAATTTATATTCGTCGTTTTTTAGTCCATTTATATATCTCGGAGTCACCTAGTGCAG,8070 fluorescence intensity (a.u.)
20,AAACATGGCCTGTATTCCCCATCTGGCATCTACCAACTTTCGGAGTCACCTAGTGCAG,9780 fluorescence intensity (a.u.)
21,TTGTTGCTCGCGACGCGCAACCGCCCGTGGCCCACCTCACCGGAGTCACCTAGTGCAG,9040 fluorescence intensity (a.u.)
22,TGCGTATCGTCGATCATCGTTGGTCCGTGCGTTCGTTAGTCGGAGTCACCTAGTGCAG,9460 fluorescence intensity (a.u.)
23,GCGATCTTCCAAGAGTACATCTCCTTCGTCGCCTCGTGCGCGGAGTCACCTAGTGCAG,8570 fluorescence intensity (a.u.)
24,TATTCTTTCTCACGTAACGATTTTTTTTCATCATTAAGTTCGGAGTCACCTAGTGCAG,8230 fluorescence intensity (a.u.)
25,CTTTTAATTTTTCCATCACATCGAAACTTTTCTACACACACGGAGTCACCTAGTGCAG,9690 fluorescence intensity (a.u.)
26,GCGGCGATTGGGATTTGGGAGGGAGACGCGGGTATTTGAACGGAGTCACCTAGTGCAG,11100 fluorescence intensity (a.u.)
27,ACTGTTTACTTTCTACTACCAACACTTTGAAGTCAATATACGGAGTCACCTAGTGCAG,8190 fluorescence intensity (a.u.)

row,Sequence,binding signal
1,CCTTTTCGTTTATCTCCATCGATTTTGGTAGCTATACTAGCGGAGTCACCTAGTGCAG,9900 fluorescence intensity (a.u.)
2,AACATGGGGCTAAAAACACGGTACTACTACCGTACCTTCACGGAGTCACCTAGTGCAG,9240 fluorescence intensity (a.u.)
3,TCAAGGGCCCCTTTTATTTGCATGCACCACACCATGTTTCCGGAGTCACCTAGTGCAG,9380 fluorescence intensity (a.u.)
4,CCTGCCTATCTCTCTATAGTTTGTGTCTGTTTTCGTGTGCCGGAGTCACCTAGTGCAG,10000 fluorescence intensity (a.u.)
5,ACTCGCGCCGCCCTGCCCTGTCGTCCCGCCGCATCACCCGCGGAGTCACCTAGTGCAG,9150 fluorescence intensity (a.u.)
6,TGAGTTTGTTTGCTGGGTTGGTTCGTGCGTTTTCTTGGATCGGAGTCACCTAGTGCAG,18800 fluorescence intensity (a.u.)
7,CATTCTCGCGACGACTCGTGCTGACTGCTTCGTCACCAACCGGAGTCACCTAGTGCAG,8220 fluorescence intensity (a.u.)
8,CTGCTCTATATATCAAGCCGAAGCCGAAGCCGCCTTGACCCGGAGTCACCTAGTGCAG,8192 fluorescence intensity (a.u.)
9,AATATTTTTCAACTCCACGCATTTTCTTCACATATCAATGCGGAGTCACCTAGTGCAG,8510 fluorescence intensity (a.u.)
10,AAGGGGATCGGAGATGCCGCTGGGCAAGTACTACTGCGACCGGAGTCACCTAGTGCAG,29900 fluorescence intensity (a.u.)
11,TTTGGCACACATCATTTTTTTCAGGTCACCAGTAGCTATCCGGAGTCACCTAGTGCAG,8120 fluorescence intensity (a.u.)
12,CAACCTAATTGGCATTTACTTTTATTGTATCATTTTGTTCCGGAGTCACCTAGTGCAG,9850 fluorescence intensity (a.u.)
13,TTTCAAAACTCGTAAACCCGCGCAACACCAAAACCACTTTCGGAGTCACCTAGTGCAG,8380 fluorescence intensity (a.u.)
14,TATTTTTACCCTTTACGAAACTATTGTTGTCTGTTTCTATCGGAGTCACCTAGTGCAG,9850 fluorescence intensity (a.u.)
15,CCAAAATCTGCATTCTACTATTGCGTTCACCGCCTATAAACGGAGTCACCTAGTGCAG,8710 fluorescence intensity (a.u.)
16,ACGGTCAAATGAAATGTTTGACCGGTAAGAAAAATCAAACCGGAGTCACCTAGTGCAG,10500 fluorescence intensity (a.u.)
17,CCCATCACCCGGCGCTCGCATCGCGTCGCACTCGCCCAACCGGAGTCACCTAGTGCAG,9950 fluorescence intensity (a.u.)
18,GGGTATACCGGTAATAATCACTCCAATACATATTTTTCATCGGAGTCACCTAGTGCAG,9280 fluorescence intensity (a.u.)
19,ACTTTGCAATTTGACATGTCAAAACACCCACACATAATCACGGAGTCACCTAGTGCAG,9540 fluorescence intensity (a.u.)
20,CCCCTCGCGCCACCGCCGCCCGCATCCGCGCCGTCACCGGCGGAGTCACCTAGTGCAG,8490 fluorescence intensity (a.u.)
21,CGGCGTCGTCACCCTCGTTGTAGTGTATCCAAAGCTCGCGCGGAGTCACCTAGTGCAG,8800 fluorescence intensity (a.u.)
22,ACCCCATCGTTAGAGTTCGTGTTTTACCTTTCGTTTTGTACGGAGTCACCTAGTGCAG,8880 fluorescence intensity (a.u.)
23,CGTGCTGTACCACGTTTCTGCATGCCTCGTATTGGCCAAGCGGAGTCACCTAGTGCAG,8560 fluorescence intensity (a.u.)
24,GCTGCTGCTGCCGCCCGGCCGCCACCCGTGACCCGCGCCACGGAGTCACCTAGTGCAG,8860 fluorescence intensity (a.u.)
25,GACCCGTGCCGCCTCCTCGCCGCCGTCGTCGCGCCCCGCGCGGAGTCACCTAGTGCAG,9590 fluorescence intensity (a.u.)
26,AGAGAGAGCGTGGGTGGGGTGGGTGCTCTGGGTGACTGGGCGGAGTCACCTAGTGCAG,10400 fluorescence intensity (a.u.)
27,GCTGCTGCCGCCCGTTGCGCGCCCGTCCCCGTCTCGTGTCCGGAGTCACCTAGTGCAG,8420 fluorescence intensity (a.u.)

# Given with bars between the fields: entries from further up.
row | Sequence | binding signal
8 | CTGCTCTATATATCAAGCCGAAGCCGAAGCCGCCTTGACCCGGAGTCACCTAGTGCAG | 8192 fluorescence intensity (a.u.)
9 | AATATTTTTCAACTCCACGCATTTTCTTCACATATCAATGCGGAGTCACCTAGTGCAG | 8510 fluorescence intensity (a.u.)
